This is one part of the list.
Compound: CC1Cc2ccccc2N1C(=O)C1CCCN(C1)C(=O)CCl (mixture of isomers) [TRIM25 ligand 11 (diastereomer mixture)]
Test: probe-labelled cysteine peptide fold change vs DMSO (competition) (log2 fold change); higher = less target engagement (more negative = stronger competition)
Settings: THP-1, incubation time: 4 h
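Further: competitive chemoproteomic profiling in live THP-1 cells with an iodoacetamide desthiobiotin (IA-DTB) probe, comparing probe-labelled peptide intensities in compound-treated cells against DMSO-treated controls.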

Sequences of proteins named here, by UniProt entry; tags and fusion partners are left off. A change or cut given only in a name is not applied to a line headed by its entry.
UniProt Q13740: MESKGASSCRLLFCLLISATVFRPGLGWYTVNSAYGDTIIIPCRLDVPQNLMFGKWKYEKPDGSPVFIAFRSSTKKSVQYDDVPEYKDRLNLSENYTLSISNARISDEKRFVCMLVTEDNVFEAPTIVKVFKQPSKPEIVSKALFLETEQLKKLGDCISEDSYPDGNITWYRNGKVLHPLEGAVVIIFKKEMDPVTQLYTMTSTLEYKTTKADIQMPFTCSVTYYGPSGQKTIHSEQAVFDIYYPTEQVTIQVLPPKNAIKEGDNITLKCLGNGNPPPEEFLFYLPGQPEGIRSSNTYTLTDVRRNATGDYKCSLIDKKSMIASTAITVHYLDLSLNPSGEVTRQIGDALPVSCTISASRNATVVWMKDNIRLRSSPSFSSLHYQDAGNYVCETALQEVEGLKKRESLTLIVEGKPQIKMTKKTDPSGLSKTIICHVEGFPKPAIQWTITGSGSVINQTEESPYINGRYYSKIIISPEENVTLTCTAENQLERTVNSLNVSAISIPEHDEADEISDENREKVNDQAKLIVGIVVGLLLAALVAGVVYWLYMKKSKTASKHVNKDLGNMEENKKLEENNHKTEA
UniProt O43865, whole entry, looked up: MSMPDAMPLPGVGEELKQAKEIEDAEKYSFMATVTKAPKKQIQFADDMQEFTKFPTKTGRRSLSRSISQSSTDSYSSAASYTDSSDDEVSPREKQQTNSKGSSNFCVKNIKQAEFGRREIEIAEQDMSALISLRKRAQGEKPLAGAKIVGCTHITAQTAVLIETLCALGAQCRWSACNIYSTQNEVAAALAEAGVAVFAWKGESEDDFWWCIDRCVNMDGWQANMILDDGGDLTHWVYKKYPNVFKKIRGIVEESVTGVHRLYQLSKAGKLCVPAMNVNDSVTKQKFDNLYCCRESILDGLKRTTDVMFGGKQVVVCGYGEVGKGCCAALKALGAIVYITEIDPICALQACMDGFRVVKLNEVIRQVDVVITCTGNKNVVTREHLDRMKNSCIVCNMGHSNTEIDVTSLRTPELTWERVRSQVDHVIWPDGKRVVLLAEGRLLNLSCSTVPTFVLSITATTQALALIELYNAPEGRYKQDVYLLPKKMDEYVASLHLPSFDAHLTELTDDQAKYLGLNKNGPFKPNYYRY
UniProt O00116: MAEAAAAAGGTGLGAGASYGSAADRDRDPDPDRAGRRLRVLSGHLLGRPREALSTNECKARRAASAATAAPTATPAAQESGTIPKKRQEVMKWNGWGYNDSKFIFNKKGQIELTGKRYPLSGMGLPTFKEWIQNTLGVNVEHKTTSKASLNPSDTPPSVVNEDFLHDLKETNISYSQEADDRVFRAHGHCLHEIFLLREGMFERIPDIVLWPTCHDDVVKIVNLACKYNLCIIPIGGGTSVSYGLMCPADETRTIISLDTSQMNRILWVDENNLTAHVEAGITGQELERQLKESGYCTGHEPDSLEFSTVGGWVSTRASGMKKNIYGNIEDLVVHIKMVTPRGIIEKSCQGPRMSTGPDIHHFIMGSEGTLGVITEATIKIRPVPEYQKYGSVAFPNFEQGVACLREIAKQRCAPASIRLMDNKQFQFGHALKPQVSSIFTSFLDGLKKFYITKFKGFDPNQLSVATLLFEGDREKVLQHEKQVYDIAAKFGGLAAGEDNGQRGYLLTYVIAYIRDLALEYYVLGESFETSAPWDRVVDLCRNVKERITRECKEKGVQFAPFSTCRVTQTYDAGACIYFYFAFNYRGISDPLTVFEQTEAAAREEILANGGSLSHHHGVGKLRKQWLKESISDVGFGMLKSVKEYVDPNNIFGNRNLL
UniProt Q99996, whole entry, looked up: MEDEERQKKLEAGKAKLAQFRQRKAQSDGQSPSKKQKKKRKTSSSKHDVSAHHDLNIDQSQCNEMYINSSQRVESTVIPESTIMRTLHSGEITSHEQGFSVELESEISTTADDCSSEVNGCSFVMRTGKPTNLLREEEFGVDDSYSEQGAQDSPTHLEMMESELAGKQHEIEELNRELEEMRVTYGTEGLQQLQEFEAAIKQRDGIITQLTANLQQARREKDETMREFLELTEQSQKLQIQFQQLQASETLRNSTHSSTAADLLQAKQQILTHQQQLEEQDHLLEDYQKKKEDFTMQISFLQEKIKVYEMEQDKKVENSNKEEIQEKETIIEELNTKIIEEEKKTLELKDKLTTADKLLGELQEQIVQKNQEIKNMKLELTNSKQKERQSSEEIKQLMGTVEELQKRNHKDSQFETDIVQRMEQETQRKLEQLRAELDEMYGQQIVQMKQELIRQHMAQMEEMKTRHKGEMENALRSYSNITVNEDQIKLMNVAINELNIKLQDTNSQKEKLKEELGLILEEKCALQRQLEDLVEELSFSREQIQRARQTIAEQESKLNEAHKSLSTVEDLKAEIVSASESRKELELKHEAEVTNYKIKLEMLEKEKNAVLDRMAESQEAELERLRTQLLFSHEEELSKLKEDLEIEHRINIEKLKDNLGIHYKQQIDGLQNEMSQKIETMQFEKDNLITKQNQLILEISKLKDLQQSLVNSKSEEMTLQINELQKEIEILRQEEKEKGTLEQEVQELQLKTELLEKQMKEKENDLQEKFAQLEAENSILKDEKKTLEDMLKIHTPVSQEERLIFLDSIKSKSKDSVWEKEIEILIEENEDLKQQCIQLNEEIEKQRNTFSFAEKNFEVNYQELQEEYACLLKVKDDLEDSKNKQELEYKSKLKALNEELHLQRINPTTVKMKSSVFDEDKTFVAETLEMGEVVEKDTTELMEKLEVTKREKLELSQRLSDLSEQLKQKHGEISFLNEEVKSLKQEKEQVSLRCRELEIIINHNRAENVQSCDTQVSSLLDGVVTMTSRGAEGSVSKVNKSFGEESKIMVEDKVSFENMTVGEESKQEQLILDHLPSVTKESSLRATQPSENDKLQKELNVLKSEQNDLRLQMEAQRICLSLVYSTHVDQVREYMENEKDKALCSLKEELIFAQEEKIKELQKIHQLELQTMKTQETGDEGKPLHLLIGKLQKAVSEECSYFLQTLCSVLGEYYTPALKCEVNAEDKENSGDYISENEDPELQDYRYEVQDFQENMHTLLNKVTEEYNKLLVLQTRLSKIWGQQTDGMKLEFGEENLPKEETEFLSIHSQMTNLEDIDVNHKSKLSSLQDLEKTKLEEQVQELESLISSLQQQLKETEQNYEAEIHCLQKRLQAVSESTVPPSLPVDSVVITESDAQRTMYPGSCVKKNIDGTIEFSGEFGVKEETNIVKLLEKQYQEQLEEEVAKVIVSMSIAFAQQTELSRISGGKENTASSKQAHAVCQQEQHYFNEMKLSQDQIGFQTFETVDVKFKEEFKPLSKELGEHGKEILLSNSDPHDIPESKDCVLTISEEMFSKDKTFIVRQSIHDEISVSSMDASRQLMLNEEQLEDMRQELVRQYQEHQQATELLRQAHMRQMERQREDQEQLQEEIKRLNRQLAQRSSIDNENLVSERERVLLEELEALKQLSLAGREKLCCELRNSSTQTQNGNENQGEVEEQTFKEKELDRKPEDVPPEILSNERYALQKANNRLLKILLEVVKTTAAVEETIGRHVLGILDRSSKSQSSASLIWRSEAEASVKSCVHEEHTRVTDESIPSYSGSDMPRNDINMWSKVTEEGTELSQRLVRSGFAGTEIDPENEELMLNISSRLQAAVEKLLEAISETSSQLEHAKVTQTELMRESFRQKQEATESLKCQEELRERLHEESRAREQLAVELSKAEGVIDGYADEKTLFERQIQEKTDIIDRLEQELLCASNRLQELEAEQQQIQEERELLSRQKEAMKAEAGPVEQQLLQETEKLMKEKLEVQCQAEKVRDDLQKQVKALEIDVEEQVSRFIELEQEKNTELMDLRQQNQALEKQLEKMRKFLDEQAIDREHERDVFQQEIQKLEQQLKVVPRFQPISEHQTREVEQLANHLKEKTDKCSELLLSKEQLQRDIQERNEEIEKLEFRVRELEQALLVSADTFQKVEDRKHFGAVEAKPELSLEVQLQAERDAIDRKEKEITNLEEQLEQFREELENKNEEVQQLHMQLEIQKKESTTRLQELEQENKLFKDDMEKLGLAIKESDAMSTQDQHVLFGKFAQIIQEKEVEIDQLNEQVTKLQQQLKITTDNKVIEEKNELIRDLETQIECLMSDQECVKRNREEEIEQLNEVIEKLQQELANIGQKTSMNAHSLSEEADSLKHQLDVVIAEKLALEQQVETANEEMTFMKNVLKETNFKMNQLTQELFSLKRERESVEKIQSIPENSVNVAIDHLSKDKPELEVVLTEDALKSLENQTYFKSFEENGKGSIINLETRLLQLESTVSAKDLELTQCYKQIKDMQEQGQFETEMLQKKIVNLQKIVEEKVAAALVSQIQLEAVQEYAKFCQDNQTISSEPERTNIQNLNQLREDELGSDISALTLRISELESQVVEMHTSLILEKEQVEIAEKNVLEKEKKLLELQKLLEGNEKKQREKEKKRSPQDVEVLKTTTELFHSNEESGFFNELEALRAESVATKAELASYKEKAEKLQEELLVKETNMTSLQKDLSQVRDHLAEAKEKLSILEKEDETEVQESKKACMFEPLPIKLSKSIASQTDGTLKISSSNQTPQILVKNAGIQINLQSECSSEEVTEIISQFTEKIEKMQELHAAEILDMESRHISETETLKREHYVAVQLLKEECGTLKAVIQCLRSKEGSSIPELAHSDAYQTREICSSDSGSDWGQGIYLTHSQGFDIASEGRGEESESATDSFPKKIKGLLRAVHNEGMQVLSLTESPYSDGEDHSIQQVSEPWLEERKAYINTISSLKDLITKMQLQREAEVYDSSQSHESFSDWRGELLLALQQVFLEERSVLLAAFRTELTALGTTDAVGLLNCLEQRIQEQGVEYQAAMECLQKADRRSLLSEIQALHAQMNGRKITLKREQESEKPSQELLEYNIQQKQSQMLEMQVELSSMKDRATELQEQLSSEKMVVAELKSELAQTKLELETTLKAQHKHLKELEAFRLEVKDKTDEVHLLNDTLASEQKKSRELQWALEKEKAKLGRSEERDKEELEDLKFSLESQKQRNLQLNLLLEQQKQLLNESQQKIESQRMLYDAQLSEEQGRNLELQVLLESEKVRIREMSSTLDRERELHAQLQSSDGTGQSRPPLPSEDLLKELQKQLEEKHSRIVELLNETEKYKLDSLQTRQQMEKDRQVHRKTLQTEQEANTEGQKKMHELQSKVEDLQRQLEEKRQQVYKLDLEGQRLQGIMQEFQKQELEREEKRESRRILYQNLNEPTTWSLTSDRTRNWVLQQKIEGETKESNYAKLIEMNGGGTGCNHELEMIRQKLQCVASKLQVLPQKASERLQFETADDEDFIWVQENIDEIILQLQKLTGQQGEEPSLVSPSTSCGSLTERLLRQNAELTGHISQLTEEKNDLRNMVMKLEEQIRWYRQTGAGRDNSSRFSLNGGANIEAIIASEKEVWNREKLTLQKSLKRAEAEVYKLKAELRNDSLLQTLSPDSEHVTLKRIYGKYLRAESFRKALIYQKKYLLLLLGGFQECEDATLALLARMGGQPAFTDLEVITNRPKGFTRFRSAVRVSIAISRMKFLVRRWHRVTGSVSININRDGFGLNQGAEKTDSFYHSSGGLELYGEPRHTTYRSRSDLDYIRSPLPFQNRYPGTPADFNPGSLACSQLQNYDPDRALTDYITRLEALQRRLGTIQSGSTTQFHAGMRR
UniProt P09917: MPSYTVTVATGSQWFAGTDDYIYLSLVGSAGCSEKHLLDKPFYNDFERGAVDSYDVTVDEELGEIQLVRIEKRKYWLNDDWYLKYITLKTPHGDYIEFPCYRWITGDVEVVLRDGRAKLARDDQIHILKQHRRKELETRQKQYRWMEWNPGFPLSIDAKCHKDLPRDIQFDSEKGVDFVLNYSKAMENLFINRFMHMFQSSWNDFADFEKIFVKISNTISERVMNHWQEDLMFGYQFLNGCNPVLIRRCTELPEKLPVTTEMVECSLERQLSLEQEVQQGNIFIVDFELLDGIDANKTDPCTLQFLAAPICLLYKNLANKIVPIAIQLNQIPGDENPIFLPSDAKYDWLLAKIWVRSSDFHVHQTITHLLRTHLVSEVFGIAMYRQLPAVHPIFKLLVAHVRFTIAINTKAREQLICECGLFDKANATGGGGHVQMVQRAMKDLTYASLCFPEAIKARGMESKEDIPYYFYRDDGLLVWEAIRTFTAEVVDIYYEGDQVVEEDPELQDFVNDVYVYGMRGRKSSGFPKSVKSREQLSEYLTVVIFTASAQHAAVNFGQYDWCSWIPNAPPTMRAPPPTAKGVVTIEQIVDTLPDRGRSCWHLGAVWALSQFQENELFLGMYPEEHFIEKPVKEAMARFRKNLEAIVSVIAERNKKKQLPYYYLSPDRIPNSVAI
UniProt Q9Y3D8, whole entry, looked up: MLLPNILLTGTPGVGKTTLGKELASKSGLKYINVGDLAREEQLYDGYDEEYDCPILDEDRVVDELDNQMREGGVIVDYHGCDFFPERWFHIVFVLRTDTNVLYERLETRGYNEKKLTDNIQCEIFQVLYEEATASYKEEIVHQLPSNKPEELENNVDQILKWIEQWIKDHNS

| Target | probe-labelled cysteine peptide fold change (10 µM) | probe-labelled cysteine peptide fold change (50 µM) |
| --- | --- | --- |
| AMOT_Q4VCS5_741_CLDMEGR (UniProt Q4VCS5) | 0.107 | 0.0669 |
| AHCTF1_Q8WYP5_1261_CAVPVETEWLK (UniProt Q8WYP5) | -0.467 | -0.302 |
| ALCAM_Q13740_113_FVCMLVTEDNVFEAPTIVK (UniProt Q13740) | 0.0437 | -4.56e-05 |
| ALCAM_Q13740_435_TIICHVEGFPK (UniProt Q13740) | 0.0685 | 0.223 |
| AKR1B1_P15121_187_PAVNQIECHPYLTQEK (UniProt P15121) | 0.0786 | 0.163 |
| ALDH9A1_P49189_96_EREDEIATMECINNGK (UniProt P49189) | -0.125 | -0.144 |
| ANAPC5_Q9UJX4_312_YAALNLAALHCR (UniProt Q9UJX4) | -0.0472 | 0.14 |
| AKAP8_O43823_484_KIEAAHCLACDMLIPAQPQLLQR (UniProt O43823) | 0.092 | -0.0514 |
| AIFM1_O95831_256_CLIATGGTPR (UniProt O95831) | 0.0434 | 0.0627 |
| AIMP1_Q12904_211_MVILLCNLK (UniProt Q12904) | 0.0765 | 0.165 |
| AHCYL1_O43865_211_GESEDDFWWCIDR (UniProt O43865) | 0.324 | 0.214 |
| ALG2_Q9H553_137_ILFYCHFPDLLLTK (UniProt Q9H553) | 0.0813 | 0.301 |
| ALDH1L1_O75891_707_GENCIAAGR (UniProt O75891) | -0.053 | -0.175 |
| AKR1A1_P14550_134_NADGTICYDSTHYK (UniProt P14550) | 0.0816 | -0.0691 |
| AGPS_O00116_297_ESGYCTGHEPDSLEFSTVGGWVSTR (UniProt O00116) | -0.0317 | -0.192 |
| ANAPC2_Q9UJX6_557_FGEAPMHFCEVMLK (UniProt Q9UJX6) | 0.061 | 0.0195 |
| AHNAK_Q09666_1833_GPFVEAEVPDVDLECPDAK (UniProt Q09666) | -0.0421 | -0.135 |
| AKAP9_Q99996_1782_SCVHEEHTR (UniProt Q99996) | -0.0829 | -0.142 |
| ALDH6A1_Q02252_149_GLQVVEHACSVTSLMMGETMPSITK (UniProt Q02252) | -0.116 | -0.034 |

| Target | probe-labelled cysteine peptide fold change (10 µM) | probe-labelled cysteine peptide fold change (50 µM) |
| --- | --- | --- |
| ANKFY1_Q9P2R3_34_RCALLAAQANK (UniProt Q9P2R3) | 0.0574 | 0.185 |
| ALDH3A2_P51648_50_DILTAIAADLCK (UniProt P51648) | -0.0402 | 0.0674 |
| ALOX5_P09917_450_DLTYASLCFPEAIK (UniProt P09917) | -0.0165 | -0.0147 |
| AGPS_O00116_565_GVQFAPFSTCR (UniProt O00116) | -0.0113 | 0.111 |
| ANAPC4_Q9UJX5_732_VSCVLSSNLR (UniProt Q9UJX5) | 0.0527 | 0.171 |
| AGL_P35573_399_LINYHQEQAVNCLLGNVFYER (UniProt P35573) | 0.0949 | 0.00508 |
| AHCYL1_O43865_317_QVVVCGYGEVGK (UniProt O43865) | 0.0174 | 0.104 |
| AKR1A1_P14550_187+200_QIDDILSVASVRPAVLQVECHPYLAQNELIAHCQAR (UniProt P14550) | -0.0471 | -0.0131 |
| AK6_Q9Y3D8_81_EGGVIVDYHGCDFFPER (UniProt Q9Y3D8) | 0.0956 | 0.161 |
| AGMAT_Q9BSE5_250_VVLAEDCWMK (UniProt Q9BSE5) | -0.138 | 0.215 |
| AKAP9_Q99996_2868_EECGTLK (UniProt Q99996) | -0.119 | 0.0501 |
| AKT2_P31751_124_CGSPSDSSTTEEMEVAVSK (UniProt P31751) | 0.019 | -0.15 |
| AKAP9_Q99996_1954_TDIIDRLEQELLCASNR (UniProt Q99996) | 0.0046 | -0.0214 |
| AKAP1_Q92667_102_LPAEPPALLQTHPPCR (UniProt Q92667) | -0.0712 | -0.0529 |
| ALDH5A1_P51649_93_WLPAAATFPVQDPASGAALGMVADCGVR (UniProt P51649) | 0.0445 | -0.167 |
| ALOX5_P09917_419_EQLICECGLFDK (UniProt P09917) | -0.177 | 0.0528 |
| ALDOA_P04075_240_ALSDHHIYLEGTLLKPNMVTPGHACTQK (UniProt P04075) | 0.0583 | -0.178 |
| AHCYL2_Q96HN2_232_IVGCTHITAQTAVLMETLGALGAQCR (UniProt Q96HN2) | 0.24 | -0.144 |
